# Measurements published in PubChem BioAssay AID1508600 (Functional Genomics Laboratory (NCATS/FGL), 2020).
# In all, about 53,000 sequences went through this assay and about 3,700 (7%) were called active.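 The calls were made as follows: active = gene knockdowns whose robust z-score for IL-1 alpha signal is at least 2 or at most -2, so actives lie on both sides; inactive = the rest.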 This is one part of the list.
# Experiment: Components of the Cytosolic LPS Sensing Pathway: Gene Identification via Genome-wide siRNA Screen;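 also: robust z of the log signal after scaling to non-targeting control siRNA wells of the plate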
# Details: RAW264.7 macrophages, IL-1a HTRF, actives lie on both sides, screened at 100 nM (by protocol), cells primed 5 h with Pam3CSK4 first
# How it was run: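 Three distinct siRNAs per gene were tested singly at 100 nM in RAW264.7 macrophages. Following Pam3CSK4 priming and 24 hour LipidA transfection, IL-1a secretion was read by HTRF.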
row,Sequence,z-score
1,GCAUCUCUAAUGUCCAGCATT against Slc5a9,inactive: -0.715
2,GGGCAAAAGCUGUUACAAGTT against Ahrr,inactive: -0.0958
3,CCACAAGUGCUUCAUGGGUTT against Rims3,inactive: 0.299
4,GGGCUUUUUCUUGUUUUUCTT against Brk1,inactive: 0.618
5,GGAAAUGGAGAAAUAUGCATT against Plod3,inactive: -0.167
6,CCUUCUAAGAGAAAAACGUTT against Eps15,inactive: 0.198
7,GGUCAACAAGGGCUUAUAGTT against Rpl22,inactive: -0.435
8,GGUGACCAAUCUGUAUGUUTT against Madcam1,inactive: 0.18
9,GGAGGAGAUUGUCCAGAAATT against Ecm1,inactive: 1.2
10,GGAUCUACGAAAAAGAUGATT against Crygb,inactive: -1.44
11,CCCAAGCAACCCUUAUCAATT against Mcee,inactive: -0.315
12,GGAAGAAAAACAGAGGAGATT against Cts7,inactive: -0.877
13,GGAAUCAUCUUUGUGGAGATT against Nudt22,inactive: -0.733
14,GCUUAUGCAAUAUGAUAACTT against Gnpda2,inactive: -0.347
15,GGUAUCUUCAAGUACAUGATT against Zfp959,inactive: 0.92
16,GGGUCAUGUCUGAAUUAAATT against Shld2,inactive: -0.68
17,GGGAGUUAAAUACCUGUGUTT against Dusp22,inactive: -0.0625
18,GGAGAAUGAGAUCAACCUGTT against Pah,inactive: 0.618
19,GGGCCAAGCAAUUUGGUAGTT against S100a14,inactive: 1.31
20,CCAGAUACUUCUCAUGGCGTT against Dipk1b,inactive: -0.0671
21,GAACGUGCAGCUGACAGAGTT against Ppp1ca,inactive: -1.03
22,CCUCAGGUAUCCCGCUUUATT against Stk24,inactive: 0.442

row,Sequence,z-score
1,GGUUCGAUGUCCAGUCACUTT against Ppp2ca,inactive: -1.41
2,GCAGGGCCUCUGUUUUUUATT against 1190005I06Rik,inactive: -1.84
3,GGAGUUGCCUCUGAAGACCTT against Ccm2l,inactive: 0.797
4,GCAACAAGUUCCCAGUAUCTT against Dnah1,inactive: 0.725
5,CGCACUCUUACUCACCAGATT against Tmem135,inactive: 0.437
6,GGUGUUAAGUCACAAAAUGTT against Meis2,inactive: 1.59
7,CGGGCAUUUACGAAUCAAGTT against Lmln,inactive: 0.813
8,GGUAAACUACGAAGAGUUUTT against Calm2,inactive: 1.09
9,GGAAAUGUUAAGUGCCUUGTT against Mrpl53,inactive: -0.0807
10,GCCGCUAACUAAAGUCAAATT against Aloxe3,inactive: 1.15
11,GCAAACUAUAGGUGCGUUGTT against Dscc1,inactive: 0.885
12,CGAUGAAGUAUCAAUUAGATT against Usp1,inactive: 0.165
13,GGGAAAGUUGGAGAGUACGTT against Hoxa1,inactive: -0.626
14,GCCAUGGAAAGAGCCUUGATT against Ighg3,inactive: -0.323
15,GGUCAAUGAACCAUCCCACTT against Padi6,inactive: -0.983
16,GGAAGACUUGUUCAACUGGTT against Grwd1,inactive: -0.88
17,CCUCUGUCUAAGAUCAGUUTT against Trpm2,inactive: 0.102
18,GGCCACUGAUCAACUAAAGTT against Zfp110,active: 2.27
19,GGAACAACUCUUAUGUAUUTT against B3gat1,inactive: 0.000911
20,GCCUGCCUUGGAAAAGUCATT against Akr1c13,inactive: -0.213
21,CGUGAAUGACGACCCUCUATT against Zfp456,inactive: -0.273
22,CCUUGGAAUGCAUAGCCAATT against Sdk1,inactive: 0.285

# Three entries from above, set out differently:
row | Sequence | z-score
17 | CCUCUGUCUAAGAUCAGUUTT against Trpm2 | inactive: 0.102
18 | GGCCACUGAUCAACUAAAGTT against Zfp110 | active: 2.27
19 | GGAACAACUCUUAUGUAUUTT against B3gat1 | inactive: 0.000911

# Going on with the list:

row,Sequence,z-score
1,GGAGACCUUUCUGAAAGUCTT against Serinc5,inactive: 0.423
2,CCUGAGUAUUAAAGUUUAGTT against Nelfa,inactive: -0.702
3,GGACUCCAACCACACUAUCTT against Rab4b,inactive: 0.847
4,GCACUGGAAUCAAACCAUCTT against Ppp2r5b,inactive: 0.444
5,GGAUGGGUUGAAUUGUUUGTT against Serpina7,inactive: 0.675
6,GCAGAUCUCUUACGUCAUCTT against Adam9,inactive: 0.178
7,GUCUUCUUACCCUACUGUGTT against Olfr1178,inactive: 0.34
8,GGCCGUAUCUGUCUCCUUUTT against Defa1,inactive: 0.138
9,GGCUUUUUCUCACCAGCACTT against Sin3a,inactive: -0.0919
10,GACAUAUUUUCAUCACUGATT against Vmn1r17,inactive: -0.903
11,GGAUCUCGUGGGCUACAUUTT against Slc47a1,inactive: 0.688
12,GGAGCACCAGAGUUAAAACTT against Bcam,inactive: -0.0994
13,CCCUAAUCUGGUGAACGAUTT against Mfap5,inactive: -1.05
14,CCACUACUAGAAUCCUAAATT against Sdc3,inactive: 0.748
15,GCCUUGGACUACUUUACACTT against Tbc1d2b,inactive: -1.2
16,GGGCUGGCACUGGAAAUAGTT against Pih1d1,inactive: 0.159
17,GGGUUUUCCAUGAUCUAUUTT against Nup188,inactive: -0.436
18,CGUGUUUAGGAAAAAUUGUTT against 2510039O18Rik,inactive: -0.398
19,CCGUUUCAGUCAAAUCCAUTT against Arid4b,inactive: 0.365
20,CGGGACAAGUCCAAAUUGUTT against Rnase2b,inactive: 0.646
21,CCAAGCAUUCGAGUAUGUUTT against Ctsj,inactive: 1.07
22,GCACUCUUUUGUGCCACUUTT against Adora3,inactive: 1.02

row,Sequence,z-score
1,GGGAAAUGCUUCUAAAAAUTT against Pcdhb11,inactive: 0.377
2,GGCCAUAACGAAGGAUGAATT against Cdv3,inactive: 0.373
3,GCUUUUUCUGGAAACAGCUTT against Gpr89,inactive: -1.26
4,GGCAACCUUGUCUAUUCACTT against Rrp7a,inactive: 0.343
5,CCAGCAAAAAUCGAUACUUTT against Plcg2,inactive: 0.152
6,GCCAUCAACGUAUCUUACUTT against 4930548H24Rik,inactive: -0.164
7,GGCUCAUCGAGAUUAACCCTT against Carns1,inactive: 0.195
8,GGCAAAAUUAGCAUCAAAGTT against Slc22a3,inactive: 0.577
9,GGGCUUAAUUAUGUCUUUUTT against Ceacam19,inactive: -0.528
10,CCACUUGGAUGCAGUGAAGTT against Ehmt1,inactive: 0.0126
11,CGGAUGAACAUUUACCAAGTT against Dpy19l3,inactive: 0.796
12,GGAGAUUCUGUAGGUUAUUTT against Lrat,inactive: 0.0632
13,CGUAGAAGUUGAUGAGUCATT against Numb,inactive: -1.05
14,GGAUAAUCAGGAAGGUACUTT against Blmh,inactive: 0.0997
15,GGGCUUGGUUUUGGACAUUTT against Fcsk,inactive: 1.41
16,GCGACAUCUACAAGUUCAUTT against Foxb2,inactive: -0.326
17,GGGAUUCAGAUUCUAUCAGTT against Vmn2r-ps54,inactive: 0.17
18,GGAAGAGGAAAUCACCACATT against Clec11a,active: -2.16
19,CCUAAGUAGUGUUUGAACUTT against B530045E10Rik,inactive: -0.721
20,GGUCCAAUUAACCUAUCUUTT against Ppip5k2,active: -2.06
21,CCCAUUUAGAAUUACGGCATT against Ppp2r2d,inactive: 0.581
22,GGCGGAUAUCAAUACGAAATT against Rpl14,inactive: 0.537

# Shown with tabs: part of the list above.
row	Sequence	z-score
13	CGUAGAAGUUGAUGAGUCATT against Numb	inactive: -1.05
14	GGAUAAUCAGGAAGGUACUTT against Blmh	inactive: 0.0997
15	GGGCUUGGUUUUGGACAUUTT against Fcsk	inactive: 1.41
16	GCGACAUCUACAAGUUCAUTT against Foxb2	inactive: -0.326
17	GGGAUUCAGAUUCUAUCAGTT against Vmn2r-ps54	inactive: 0.17
18	GGAAGAGGAAAUCACCACATT against Clec11a	active: -2.16

# Next part

row,Sequence,z-score
1,GCUGAUGGCAGAGGAAACATT against Olfr213,inactive: -1.09
2,GGUUUUCCUAAAGUCAACATT against Bfar,active: -2.24
3,GGAGCUGGCUGACUUCAUUTT against Fcho1,inactive: 0.825
4,GGAGCCUCAUGAAAAAUGCTT against 9930014A18Rik,inactive: -0.34
5,GGGUCAGCCAAAGGAAAAUTT against Nlrc3,inactive: -0.193
6,CCAAUGCAAGUGCUACAGUTT against Zfp277,active: -2.64
7,GCCUCCAACUGAACAAAUUTT against Tnfrsf14,inactive: 0.0618
8,GGAACCCUAUAUCUAGCAATT against Olfr114,inactive: 1.56
9,CGAUAAUUUGGCUAAGUAUTT against Pikfyve,inactive: 0.252
10,CCUCUAACAUACGUAAGUUTT against Necap1,inactive: -1.05
11,GCCUAUCUAAUAUACAACGTT against Dnase2b,inactive: -0.172
12,GGUUCCACUCUGAACUUAATT against Ces1c,inactive: 1.55
13,GGGAAGAUGAGAUUGAAGCTT against Cdhr1,inactive: -0.552
14,GGCAGGUAAUUUUGAAUGUTT against Lemd2,inactive: 1.45
15,GCGAGCUGAACAAAUGGUCTT against Cyp24a1,inactive: -1.28
16,GGCUGACAAGGAAUUUGUATT against Cntln,inactive: 0.26
17,CCUUUCCAAACACCUAUAATT against Sox6,inactive: -1.2
18,GGAAAACGGACUAUUGUCCTT against Phf13,inactive: 0.575
